The test system of the test is B6C3F1 mice, B16 melanoma ip, median survival T/C. Put plainly: NCI In Vivo Anticancer Drug Screen. Data for tumor model B16 Melanoma (intraperitoneal) in B6C3F1 mice. Conditions: T/C endpoint: median survival time, higher T/C = longer survival. The method, boiled down:
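Readout: survival or tumor size in treated mice relative to vehicle controls (T/C). Model uses transplantable tumors grown in mice.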

The mark [1] stands for this setting: dose: 400.0 mg/kg/injection, schedule: Q01DX009 (ip), vehicle: saline with Tween-80.
The mark [2] stands for this setting: dose: 200.0 mg/kg/injection, schedule: Q01DX009 (ip), vehicle: saline with Tween-80.
Setting [3] is: dose: 20.0 mg/kg/injection, schedule: Q01DX009 (ip), vehicle: water.

Drawing on PubChem BioAssay AID200 (DTP/NCI, 2004), this text covers T/C and survivor count for 13 compounds.

The list shows only some results of the screen, not a fair sample: it gathers tests that were run many times, whatever their T/C, doses with no T/C, and many T/C values between a quarter and a half above the control. Further doses and runs are listed elsewhere. T/C is the treated group as % of the vehicle group. Some doses have a count of surviving animals in place of a T/C: the source files T/C as zero there, which appears to mark a toxic dose or a test without result, not a measured value. Some survivor counts are full or nearly so, which does not show that the dose was tolerated: the source hardly ever lists a survival T/C far under the control, and the zero likely stands for such cases as well. Survivors were counted at the toxicity check, usually on the fifth day, unless a day is given; later deaths do not show. Schedules are NCI's codes, taken here to give the interval after Q, in days (D) or hours (H), and the number of doses after X. Some entries were tested several times; the results are listed from low to high. For survival time, this PubChem deposit counts one and a half times the control or more as active, and values a quarter to a half above the control carry no call in these data; other NCI protocols may use other cut-offs.

Take `CC(C)(C[NH-])C[NH-].[Cl][Pt+2][Cl]`: the T/C is 135 % of control (dose: 0.25 mg/kg/injection, schedule: Q01DX009 (ip), vehicle: water); 149 % of control (dose: 0.5 mg/kg/injection, schedule: Q01DX009 (ip), vehicle: water); 127 % of control (dose: 0.5 mg/kg/injection, schedule: Q04DX003 (ip), vehicle: water); 144 and 147 % of control (dose: 1.0 mg/kg/injection, schedule: Q01DX009 (ip), vehicle: water); 141 % of control (dose: 1.0 mg/kg/injection, schedule: Q04DX003 (ip), vehicle: water). Further, the survivor count is listed as 10 of 10 (dose: 2.0 mg/kg/injection, schedule: Q01DX009 (ip), vehicle: water) and 10 of 10 (dose: 4.0 mg/kg/injection, schedule: Q01DX009 (ip), vehicle: water).
Regarding `NCCCNCCCCNC(=O)C(O)NC(=O)CCCCCCN=C(N)N` (stereo unspecified), the T/C (dose: 25.0 mg/kg/injection, schedule: Q01DX009 (ip), vehicle: saline) is 126 % of control. Further, the survivor count is, setting by setting: (dose: 50.0 mg/kg/injection, schedule: Q01DX009 (ip), vehicle: saline) 0 of 10; (dose: 100.0 mg/kg/injection, schedule: Q01DX009 (ip), vehicle: saline) 0 of 10.
As to `COC1(OC)C2C=CC1CC2`, the T/C (dose: 25.0 mg/kg/injection, schedule: Q01DX009 (ip), vehicle: saline with Tween-80) is 130 % of control. Besides, under setting [1], the survivor count was 9 of 10.
`COC(=O)[C@@]12OC[C@]34[C@H]([C@@H](O)[C@@H]1O)[C@@]1(C)CC(=O)C(O)=C(C)[C@@H]1C[C@H]3OC(=O)[C@H](OC(=O)CC(C)C)[C@@H]24`: the T/C reads like this: (dose: 0.25 mg/kg/injection, schedule: Q01DX009 (ip), vehicle: saline + alcohol) 141 and 142 % of control; (dose: 0.5 mg/kg/injection, schedule: Q01DX009 (ip), vehicle: saline + alcohol) 134 and 147 % of control; (dose: 2.0 mg/kg/injection, schedule: Q01DX009 (ip), vehicle: saline + alcohol) 134 % of control. The survivor count (dose: 4.0 mg/kg/injection, schedule: Q01DX009 (ip), vehicle: saline + alcohol) is 0 of 10 and 2 of 10.
Consider `O=NN(CCCl)C(=O)NC1CCC(=O)NC1=O` (stereo unspecified), for which the T/C by setting is: (dose: 1.6 mg/kg/injection, schedule: Q01DX005 (iv), vehicle: saline + alcohol) 128 % of control; (dose: 4.0 mg/kg/injection, schedule: Q01DX001 (ip), vehicle: saline + alcohol) 142 % of control; (dose: 4.0 mg/kg/injection, schedule: Q01DX001 (iv), vehicle: saline + alcohol) 126 % of control; (dose: 4.0 mg/kg/injection, schedule: Q01DX005 (oral), vehicle: saline + alcohol) 130 % of control; (dose: 6.4 mg/kg/injection, schedule: Q01DX005 (iv), vehicle: saline + alcohol) 137 % of control; (dose: 8.0 mg/kg/injection, schedule: Q01DX001 (iv), vehicle: saline + alcohol) 127 % of control. Also, the T/C (dose: 8.0 mg/kg/injection, schedule: Q01DX001 (oral), vehicle: saline + alcohol) was 132 % of control. Further, the survivor count is, setting by setting: (dose: 12.8 mg/kg/injection, schedule: Q01DX005 (ip), vehicle: saline + alcohol) 10 of 10; (dose: 12.8 mg/kg/injection, schedule: Q01DX005 (iv), vehicle: saline + alcohol) 10 of 10; (dose: 16.0 mg/kg/injection, schedule: Q01DX005 (ip), vehicle: saline + alcohol) 10 of 10; (dose: 16.0 mg/kg/injection, schedule: Q01DX005 (iv), vehicle: saline + alcohol) 10 of 10; (dose: 16.0 mg/kg/injection, schedule: Q01DX005 (oral), vehicle: saline + alcohol) 10 of 10; (dose: 32.0 mg/kg/injection, schedule: Q01DX001 (ip), vehicle: saline + alcohol) 10 of 10. In addition, the survivor count reads like this: (dose: 32.0 mg/kg/injection, schedule: Q01DX001 (iv), vehicle: saline + alcohol) 9 of 10; (dose: 32.0 mg/kg/injection, schedule: Q01DX005 (ip), vehicle: saline + alcohol) 10 of 10; (dose: 32.0 mg/kg/injection, schedule: Q01DX005 (iv), vehicle: saline + alcohol) 9 of 10; (dose: 32.0 mg/kg/injection, schedule: Q01DX005 (oral), vehicle: saline + alcohol) 9 of 10; (dose: 64.0 mg/kg/injection, schedule: Q01DX001 (ip), vehicle: saline + alcohol) 10 of 10; (dose: 64.0 mg/kg/injection, schedule: Q01DX001 (iv), vehicle: saline + alcohol) 10 of 10. Also, the survivor count was 9 of 10 (dose: 64.0 mg/kg/injection, schedule: Q01DX001 (oral), vehicle: saline + alcohol); 7 of 10 (dose: 64.0 mg/kg/injection, schedule: Q01DX005 (oral), vehicle: saline + alcohol); 9 of 10 (dose: 128.0 mg/kg/injection, schedule: Q01DX001 (oral), vehicle: saline + alcohol).
On to `c1ccc2c3c(c4c(c2c1)CN(C1CCCCC1)CO4)OCN(C1CCCCC1)C3`, for which the survivor count by setting is: (dose: 12.5 mg/kg/injection, schedule: Q01DX009 (ip), vehicle: other) 0 of 10; (dose: 25.0 mg/kg/injection, schedule: Q01DX009 (ip), vehicle: other) 0 of 10; (dose: 50.0 mg/kg/injection, schedule: Q01DX009 (ip), vehicle: other) 0 of 10.
As for `CC1(C)COCN1COC1CCCCC1`, the survivor count is, setting by setting: under setting [2], 2 of 10; (dose: 200.0 mg/kg/injection, schedule: Q01DX009 (ip), vehicle: saline) 8 of 10; under setting [1], 0 of 10.
As to `CN(C)c1ccc(C(=C2C=CC(=[N+](C)C)C=C2)c2ccc(N(C)C)cc2)cc1` (tested in a mixture with another compound), the survivor count was 1 of 10 (dose: 5.0 mg/kg/injection, schedule: Q01DX009 (ip), vehicle: saline) and 0 of 10 (dose: 10.0 mg/kg/injection, schedule: Q01DX009 (ip), vehicle: saline).
Consider `CCC(NC(N)=O)C(CC)NC(N)=O` (stereo unspecified), for which the survivor count by setting is: (dose: 100.0 mg/kg/injection, schedule: Q01DX009 (ip), vehicle: saline with Tween-80) 3 of 10; under setting [2], 0 of 10.
As to `CCC12C[N+]3([O-])CCc4c([nH]c5ccccc45)C(C(=O)OC)(c4cc5c(cc4OC)N(C)C4C(O)(C(=O)OC)C(OC(C)=O)C6(CC)C=CCN7CCC54C76)CC(C3)C1O2` (stereo unspecified), the T/C (dose: 1.25 mg/kg/injection, schedule: Q01DX009 (ip), vehicle: saline) is 147 % of control; the T/C (dose: 1.25 mg/kg/injection, schedule: Q01DX009 (ip), vehicle: water) is 140 % of control; the T/C (dose: 5.0 mg/kg/injection, schedule: Q01DX009 (ip), vehicle: water) was 138 % of control; the T/C (dose: 10.0 mg/kg/injection, schedule: Q01DX009 (ip), vehicle: water) is 138 % of control; the T/C under setting [3] is 135 % of control. Also, the survivor count is recorded as 8 of 10 (dose: 20.0 mg/kg/injection, schedule: Q01DX009 (ip), vehicle: saline) and 10 of 10 under setting [3].
Turning to `NCCCN=c1ccc2c3c1c(O)c1c(O)ccc(=O)c1c3[nH]n2CCNCCO`, the survivor count was 10 of 10 (dose: 16.0 mg/kg/injection, schedule: Q01DX009 (ip), vehicle: water) and 10 of 10 (dose: 32.0 mg/kg/injection, schedule: Q01DX009 (ip), vehicle: water).
In the case of `C=C1CCOC2(C(O)C(C)(O)CO)NC(=O)C1(O)NC2=O` (stereo unspecified), the survivor count (dose: 400.0 mg/kg/injection, schedule: Q01DX009 (ip), vehicle: saline) is on record as 9 of 10.
With `CCNC(=O)[B-][N+](C)(C)C`, the survivor count is reported as 10 of 10 (dose: 50.0 mg/kg/injection, schedule: Q01DX009 (ip), vehicle: Klucel (hydroxypropylcellulose) (HPC)); 10 of 10 (dose: 100.0 mg/kg/injection, schedule: Q01DX009 (ip), vehicle: Klucel (hydroxypropylcellulose) (HPC)); 9 of 10 (dose: 200.0 mg/kg/injection, schedule: Q01DX009 (ip), vehicle: Klucel (hydroxypropylcellulose) (HPC)).
